# Assay results reported in patent publication US20250340562A1, “CHROMANE IMAGING LIGANDS” (The General Hospital Corporation, priority 2021, published 2025).
# Sequences of proteins named here, by UniProt entry; tags and fusion partners are left off. Residues count along the entry.
# UniProt P31421, 19-872: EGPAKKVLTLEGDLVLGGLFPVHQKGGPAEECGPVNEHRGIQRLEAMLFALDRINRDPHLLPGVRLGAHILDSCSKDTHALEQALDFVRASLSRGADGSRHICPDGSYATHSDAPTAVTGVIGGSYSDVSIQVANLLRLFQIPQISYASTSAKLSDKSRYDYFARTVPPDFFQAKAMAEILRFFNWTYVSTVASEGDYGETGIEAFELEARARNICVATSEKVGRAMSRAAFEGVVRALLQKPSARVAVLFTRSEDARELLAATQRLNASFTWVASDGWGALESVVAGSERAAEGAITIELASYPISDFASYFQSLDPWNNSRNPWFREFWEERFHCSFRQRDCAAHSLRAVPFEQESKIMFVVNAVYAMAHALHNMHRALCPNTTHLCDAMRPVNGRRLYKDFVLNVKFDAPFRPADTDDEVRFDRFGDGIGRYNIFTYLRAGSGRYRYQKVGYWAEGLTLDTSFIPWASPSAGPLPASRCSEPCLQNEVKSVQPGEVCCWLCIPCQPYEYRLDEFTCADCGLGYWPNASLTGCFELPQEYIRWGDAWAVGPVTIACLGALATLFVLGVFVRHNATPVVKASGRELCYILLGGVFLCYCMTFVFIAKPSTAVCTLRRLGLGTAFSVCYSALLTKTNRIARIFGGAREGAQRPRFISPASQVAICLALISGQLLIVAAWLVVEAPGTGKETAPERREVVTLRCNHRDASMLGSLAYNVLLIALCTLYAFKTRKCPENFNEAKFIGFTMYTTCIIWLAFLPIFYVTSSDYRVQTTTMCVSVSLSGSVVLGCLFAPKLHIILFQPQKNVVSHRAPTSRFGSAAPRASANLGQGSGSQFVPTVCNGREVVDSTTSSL
# At least one compound was matched to its structure with a doubt left.
# Biological target: mGluR2 (Rattus norvegicus, UniProt P31421)
# Test: PET imaging of [11C]13 in rats, pretreatment (blocking) studies
# Settings: blocking agent iv 20 min before [11C]13; 9 0.5 mg/kg, 26 0.2 mg/kg
compound,measurement,value
Cn1ccc(COc2cnc(C(N)=O)cc2-c2ccc(F)cc2)n1 [VU6001966],"decrease of radioactivity accumulation, total average",14.5 f 1.5%
